From article PMC5344696
These are yes or no findings as the source states them, for the method shown. For part of these data: Binding seen in cells or lysates may run through a third protein. Some entries that bind do so weakly or less than the wild type. For part of these data: Sequences can lack the tags named with a protein.

Sequences of proteins named here, by UniProt entry; tags and fusion partners are left off.
UniProt Q8IY92: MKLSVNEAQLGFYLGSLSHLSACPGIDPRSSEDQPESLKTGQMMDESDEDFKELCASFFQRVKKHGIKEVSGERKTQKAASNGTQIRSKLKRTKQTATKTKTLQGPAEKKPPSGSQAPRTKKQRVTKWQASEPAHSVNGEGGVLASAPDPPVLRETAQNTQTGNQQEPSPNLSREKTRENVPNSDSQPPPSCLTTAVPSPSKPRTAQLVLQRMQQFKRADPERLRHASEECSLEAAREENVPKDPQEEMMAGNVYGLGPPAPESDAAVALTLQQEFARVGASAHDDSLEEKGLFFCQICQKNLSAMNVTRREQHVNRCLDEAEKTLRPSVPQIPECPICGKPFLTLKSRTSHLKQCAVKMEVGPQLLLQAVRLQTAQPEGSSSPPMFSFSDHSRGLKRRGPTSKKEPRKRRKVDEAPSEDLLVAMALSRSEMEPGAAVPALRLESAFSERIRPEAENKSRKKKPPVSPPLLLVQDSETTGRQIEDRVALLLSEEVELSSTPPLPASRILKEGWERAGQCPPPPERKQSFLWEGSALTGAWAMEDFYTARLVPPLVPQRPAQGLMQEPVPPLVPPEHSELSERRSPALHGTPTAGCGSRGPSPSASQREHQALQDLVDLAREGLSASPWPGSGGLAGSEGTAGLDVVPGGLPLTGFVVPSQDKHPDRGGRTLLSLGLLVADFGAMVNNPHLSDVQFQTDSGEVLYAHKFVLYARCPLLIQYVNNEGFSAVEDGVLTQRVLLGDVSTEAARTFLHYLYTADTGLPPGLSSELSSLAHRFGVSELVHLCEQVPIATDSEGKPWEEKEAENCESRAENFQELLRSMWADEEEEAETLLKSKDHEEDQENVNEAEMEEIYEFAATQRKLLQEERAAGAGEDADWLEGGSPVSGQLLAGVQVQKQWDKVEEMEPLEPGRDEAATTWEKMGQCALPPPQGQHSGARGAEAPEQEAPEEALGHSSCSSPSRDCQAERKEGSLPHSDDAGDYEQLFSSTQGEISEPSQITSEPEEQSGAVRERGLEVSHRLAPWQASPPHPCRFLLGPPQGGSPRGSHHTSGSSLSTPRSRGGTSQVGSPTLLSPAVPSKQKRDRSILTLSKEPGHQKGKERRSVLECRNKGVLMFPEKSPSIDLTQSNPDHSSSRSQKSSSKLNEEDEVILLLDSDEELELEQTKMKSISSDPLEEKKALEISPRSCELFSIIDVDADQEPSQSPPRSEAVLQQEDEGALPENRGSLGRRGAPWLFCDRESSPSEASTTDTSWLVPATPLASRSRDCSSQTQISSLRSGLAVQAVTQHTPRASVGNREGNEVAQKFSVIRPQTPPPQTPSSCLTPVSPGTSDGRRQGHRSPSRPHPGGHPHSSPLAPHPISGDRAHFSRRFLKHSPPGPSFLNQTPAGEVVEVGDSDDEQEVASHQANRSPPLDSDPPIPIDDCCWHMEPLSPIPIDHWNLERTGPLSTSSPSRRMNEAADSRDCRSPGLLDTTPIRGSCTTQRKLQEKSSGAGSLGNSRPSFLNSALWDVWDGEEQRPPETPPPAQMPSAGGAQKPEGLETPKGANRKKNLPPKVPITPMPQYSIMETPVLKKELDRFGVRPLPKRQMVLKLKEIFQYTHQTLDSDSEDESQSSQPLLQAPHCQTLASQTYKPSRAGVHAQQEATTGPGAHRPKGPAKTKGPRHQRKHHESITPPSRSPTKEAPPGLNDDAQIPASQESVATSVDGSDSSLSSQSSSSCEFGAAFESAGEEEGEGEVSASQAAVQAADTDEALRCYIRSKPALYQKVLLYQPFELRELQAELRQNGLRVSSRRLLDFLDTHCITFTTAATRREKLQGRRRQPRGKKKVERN

Experiments:
_(FLAG)EME1 (human) [1] = target: T1, _(FLAG)EME1 (human) (UniProt Q96AY2); test: affinity co-purification; from Hi5 cells infected with baculovirus; anti-FLAG M2 resin, HiTRAP SP HP, HiTRAP Q HP
T1 sequence: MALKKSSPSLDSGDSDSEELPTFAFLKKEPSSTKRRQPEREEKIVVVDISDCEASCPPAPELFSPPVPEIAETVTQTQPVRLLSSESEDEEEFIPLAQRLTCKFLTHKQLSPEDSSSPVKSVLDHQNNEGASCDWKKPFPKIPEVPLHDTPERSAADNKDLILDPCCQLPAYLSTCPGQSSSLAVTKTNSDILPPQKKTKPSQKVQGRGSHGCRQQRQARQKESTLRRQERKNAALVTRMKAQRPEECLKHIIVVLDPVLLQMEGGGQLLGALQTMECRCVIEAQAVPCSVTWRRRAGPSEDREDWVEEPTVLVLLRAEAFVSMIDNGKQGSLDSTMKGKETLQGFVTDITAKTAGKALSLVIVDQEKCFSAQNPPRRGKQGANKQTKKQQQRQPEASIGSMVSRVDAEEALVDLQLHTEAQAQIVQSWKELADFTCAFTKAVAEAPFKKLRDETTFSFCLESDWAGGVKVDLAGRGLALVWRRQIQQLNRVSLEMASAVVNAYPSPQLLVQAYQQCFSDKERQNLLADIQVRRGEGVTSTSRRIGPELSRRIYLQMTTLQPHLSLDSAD

_(FLAG)SLX4 (human) [2] = target: _(FLAG)SLX4 (human) (UniProt Q8IY92); test: co-IP + co-sedimentation; _(FLAG)SLX4 precipitated on anti-FLAG M2 agarose from extracts of G2/M-phase cells, eluted with 3x FLAG peptide, then run on a 10%-45% sucrose gradient; fractions blotted
_(FLAG)EME1 (human) [3] = target: T1, _(FLAG)EME1 (human); test: tandem affinity co-purification; SM from Hi5 cells infected with one baculovirus; StrepTactin Superflow, anti-FLAG M2 agarose, HiTRAP SP HP; 500 mM NaCl in the affinity steps
_(STREP)SLX4 (human) [4] = target: _(STREP)SLX4 (human) (UniProt Q8IY92); test: as above
[5] = target: T2, EME1 (human (endogenous in Flp-In T-REx 293)) (UniProt Q96AY2); test: co-sedimentation; 10%-45% sucrose gradients of whole-cell extracts of Flp-In T-REx 293 cells expressing _(FLAG)SLX4, synchronized at G1/S (double thymidine) or G2/M (thymidine, then nocodazole); SG buffer 25 mM Tris-HCl pH 8.0, 150 mM NaCl, 4°C; fractions blotted
T2 sequence: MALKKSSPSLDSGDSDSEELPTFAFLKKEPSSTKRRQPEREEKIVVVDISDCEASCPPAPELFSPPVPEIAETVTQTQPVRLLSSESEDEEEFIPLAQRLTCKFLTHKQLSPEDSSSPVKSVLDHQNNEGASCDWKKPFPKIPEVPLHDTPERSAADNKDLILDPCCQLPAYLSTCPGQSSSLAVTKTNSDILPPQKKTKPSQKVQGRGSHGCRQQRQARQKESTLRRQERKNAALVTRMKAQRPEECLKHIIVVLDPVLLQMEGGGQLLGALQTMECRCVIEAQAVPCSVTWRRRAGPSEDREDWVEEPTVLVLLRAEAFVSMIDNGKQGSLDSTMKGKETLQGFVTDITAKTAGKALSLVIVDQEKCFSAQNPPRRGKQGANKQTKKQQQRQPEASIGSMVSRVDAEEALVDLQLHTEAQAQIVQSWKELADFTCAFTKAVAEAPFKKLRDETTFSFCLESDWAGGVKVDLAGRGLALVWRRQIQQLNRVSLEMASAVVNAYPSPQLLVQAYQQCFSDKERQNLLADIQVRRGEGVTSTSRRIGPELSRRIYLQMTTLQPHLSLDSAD

_(FLAG)SLX4 (human) [6] = target: _(FLAG)SLX4 (human) (UniProt Q8IY92); test: as above
_(FLAG)EME1 (human) [7] = target: T1, _(FLAG)EME1 (human); test: three-step affinity co-purification; SMX from Hi5 cells co-infected with SM and XPF-ERCC1 baculoviruses; anti-FLAG M2 agarose, HisTRAP HP, StrepTactin Macroprep; 500 mM NaCl; SDS-PAGE
_(STREP)SLX4 (human) [8] = target: _(STREP)SLX4 (human) (UniProt Q8IY92); test: as above
_(STREP)SLX4 (human) [9] = target: _(STREP)SLX4 (human) (UniProt Q8IY92); test: tandem affinity co-purification; SLX1-SLX4 from Hi5 cells co-infected with V5SLX1_(His6) and _(STREP)SLX4 baculoviruses; StrepTactin Superflow, HisTRAP HP, HiTRAP Q HP; 500 mM NaCl in the affinity steps

Measured: binding

B1: MUS81 (protein, UniProt Q96NY9 1-551)
chain: MAAPVRLGRKRPLPACPNPLFVRWLTEWRDEATRSRRRTRFVFQKALRSLRRYPLPLRSGKEAKILQHFGDGLCRMLDERLQRHRTSGGDHAPDSPSGENSPAPQGRLAEVQDSSMPVPAQPKAGGSGSYWPARHSGARVILLVLYREHLNPNGHHFLTKEELLQRCAQKSPRVAPGSARPWPALRSLLHRNLVLRTHQPARYSLTPEGLELAQKLAESEGLSLLNVGIGPKEPPGEETAVPGAASAELASEAGVQQQPLELRPGEYRVLLCVDIGETRGGGHRPELLRELQRLHVTHTVRKLHVGDFVWVAQETNPRDPANPGELVLDHIVERKRLDDLCSSIIDGRFREQKFRLKRCGLERRVYLVEEHGSVHNLSLPESTLLQAVTNTQVIDGFFVKRTADIKESAAYLALLTRGLQRLYQGHTLRSRPWGTPGNPESGAMTSPNPLCSLLTFSDFNAGAIKNKAQSVREVFARQLMQVRGVSGEKAAALVDRYSTPASLLAAYDACATPKEQETLLSTIKCGRLQRNLGPALSRTLSQLYCSYGPLT
binds: _(FLAG)EME1 (human) [1] | _(FLAG)SLX4 (human) [2] | _(FLAG)EME1 (human) [3] | _(STREP)SLX4 (human) [4] | [5] | _(FLAG)SLX4 (human) [6] | _(FLAG)EME1 (human) [7] | _(STREP)SLX4 (human) [8]

B2: V5SLX1^R41A/E82A (protein, UniProt Q9BQ83 1-275)
chain: MGPAGVAARPGRFFGVYLLYCLNPRYRGRVYVGFTVNTARAVQQHNGGRKKGGAWRTSGRGPWEMVLVVHGFPSSVAALRFAWAWQHPHASRRLAHVGPRLRGETAFAFHLRVLAHMLRAPPWARLPLTLRWVRPDLRQDLCLPPPPHVPLAFGPPPPQAPAPRRRAGPFDDAEPEPDQGDPGACCSLCAQTIQDEEGPLCCPHPGCLLRAHVICLAEEFLQEEPGQLLPLEGQCPCCEKSLLWGDLIWLCQMDTEKEVEDSELEEAHWTDLLET
binds: _(STREP)SLX4 (human) [4] | _(STREP)SLX4 (human) [8]

B3: MUS81^D307A (protein, UniProt Q96NY9 1-551)
chain: MAAPVRLGRKRPLPACPNPLFVRWLTEWRDEATRSRRRTRFVFQKALRSLRRYPLPLRSGKEAKILQHFGDGLCRMLDERLQRHRTSGGDHAPDSPSGENSPAPQGRLAEVQDSSMPVPAQPKAGGSGSYWPARHSGARVILLVLYREHLNPNGHHFLTKEELLQRCAQKSPRVAPGSARPWPALRSLLHRNLVLRTHQPARYSLTPEGLELAQKLAESEGLSLLNVGIGPKEPPGEETAVPGAASAELASEAGVQQQPLELRPGEYRVLLCVDIGETRGGGHRPELLRELQRLHVTHTVRKLHVGAFVWVAQETNPRDPANPGELVLDHIVERKRLDDLCSSIIDGRFREQKFRLKRCGLERRVYLVEEHGSVHNLSLPESTLLQAVTNTQVIDGFFVKRTADIKESAAYLALLTRGLQRLYQGHTLRSRPWGTPGNPESGAMTSPNPLCSLLTFSDFNAGAIKNKAQSVREVFARQLMQVRGVSGEKAAALVDRYSTPASLLAAYDACATPKEQETLLSTIKCGRLQRNLGPALSRTLSQLYCSYGPLT
binds: _(FLAG)EME1 (human) [3] | _(STREP)SLX4 (human) [4] | _(FLAG)EME1 (human) [7] | _(STREP)SLX4 (human) [8]

B4: V5SLX1_(His6) (protein, UniProt Q9BQ83 1-275)
chain: MGPAGVAARPGRFFGVYLLYCLNPRYRGRVYVGFTVNTARRVQQHNGGRKKGGAWRTSGRGPWEMVLVVHGFPSSVAALRFEWAWQHPHASRRLAHVGPRLRGETAFAFHLRVLAHMLRAPPWARLPLTLRWVRPDLRQDLCLPPPPHVPLAFGPPPPQAPAPRRRAGPFDDAEPEPDQGDPGACCSLCAQTIQDEEGPLCCPHPGCLLRAHVICLAEEFLQEEPGQLLPLEGQCPCCEKSLLWGDLIWLCQMDTEKEVEDSELEEAHWTDLLET
binds: _(STREP)SLX4 (human) [9]
